For the assay, the system named is BDF1 mice, intracerebral B16 melanoma, median survival T/C. Nature of the assay: NCI In Vivo Anticancer Drug Screen. Data for tumor model B16 Melanoma (intracerebral) in B6D2F1 (BDF1) mice. The note with it: endpoint: median survival time, schedule: Q01DX005 (ip), vehicle: Klucel (hydroxypropylcellulose) (HPC), higher = longer survival. The method, then:
The antitumor activity of compounds was measured in mice bearing transplantable tumors. Survival or tumor size were measured and the results are expressed as the measurement made in the treated group (T) divided by the measurement made in the vehicle treated control group (C). The tumor model used in this assay is B16 Melanoma (intracerebral) in B6D2F1 (BDF1) mice

Inconclusive results and toxic doses are left out.

As for `COc1cc2c(c(OC)c1OC)-c1ccc(OC)c(=O)cc1[C@@H](N)CC2`, the T/C is, setting by setting: (dose: 4.0 mg/kg/injection) 95 % of control; (dose: 8.0 mg/kg/injection) 95 % of control.

The values are drawn from PubChem BioAssay AID196 (DTP/NCI, 2004).
